{
  "sequences": {"note": "Sequences of proteins named here, by UniProt entry; tags and fusion partners are left off.", "UniProt P39081": "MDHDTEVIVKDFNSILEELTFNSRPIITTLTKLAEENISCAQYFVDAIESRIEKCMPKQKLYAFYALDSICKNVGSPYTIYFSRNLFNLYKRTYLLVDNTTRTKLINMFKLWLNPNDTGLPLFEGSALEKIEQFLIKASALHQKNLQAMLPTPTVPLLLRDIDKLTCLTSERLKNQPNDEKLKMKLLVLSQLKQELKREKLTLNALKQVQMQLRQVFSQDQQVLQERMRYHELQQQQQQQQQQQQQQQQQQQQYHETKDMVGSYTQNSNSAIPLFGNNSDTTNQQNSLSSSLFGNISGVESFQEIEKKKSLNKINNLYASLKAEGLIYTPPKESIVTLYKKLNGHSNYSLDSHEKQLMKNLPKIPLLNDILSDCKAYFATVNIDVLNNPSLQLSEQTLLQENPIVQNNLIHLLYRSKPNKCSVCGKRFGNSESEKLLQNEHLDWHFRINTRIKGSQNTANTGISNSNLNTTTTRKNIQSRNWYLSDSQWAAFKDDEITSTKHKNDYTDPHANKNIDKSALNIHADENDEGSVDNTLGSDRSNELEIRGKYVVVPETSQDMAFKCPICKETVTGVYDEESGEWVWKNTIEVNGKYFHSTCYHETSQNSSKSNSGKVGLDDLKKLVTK"},
  "source": "paper PMC11276024",
  "molecules": {"B1": {"name": "Rna14 (protein, UniProt P25298 1-677)", "chain": "MSSSTTPDLLYPSADKVAEPSDNIHGDELRLRERIKDNPTNILSYFQLIQYLETQESYAKVREVYEQFHNTFPFYSPAWTLQLKGELARDEFETVEKILAQCLSGKLENNDLSLWSTYLDYIRRKNNLITGGQEARAVIVKAFQLVMQKCAIFEPKSSSFWNEYLNFLEQWKPFNKWEEQQRIDMLREFYKKMLCVPFDNLEKMWNRYTQWEQEINSLTARKFIGELSAEYMKARSLYQEWLNVTNGLKRASPINLRTANKKNIPQPGTSDSNIQQLQIWLNWIKWERENKLMLSEDMLSQRISYVYKQGIQYMIFSAEMWYDYSMYISENSDRQNILYTALLANPDSPSLTFKLSECYELDNDSESVSNCFDKCTQTLLSQYKKIASDVNSGEDNNTEYEQELLYKQREKLTFVFCVYMNTMKRISGLSAARTVFGKCRKLKRILTHDVYVENAYLEFQNQNDYKTAFKVLELGLKYFQNDGVYINKYLDFLIFLNKDSQIKTLFETSVEKVQDLTQLKEIYKKMISYESKFGNLNNVYSLEKRFFERFPQENLIEVFTSRYQIQNSNLIKKLELTYMYNEEEDSYFSSGNGDGHHGSYNMSSSDRKRLMEETGNNGNFSNKKFKRDSELPTEVLDLLSVIPKRQYFNTNLLDAQKLVNFLNDQVEIPTVESTKSG"}, "B2": {"name": "Rna15 (protein, UniProt P25299 1-296)", "chain": "MNRQSGVNAGVQNNPPSRVVYLGSIPYDQTEEQILDLCSNVGPVINLKMMFDPQTGRSKGYAFIEFRDLESSASAVRNLNGYQLGSRFLKCGYSSNSDISGVSQQQQQQYNNINGNNNNNGNNNNNSNGPDFQNSGNANFLSQKFPELPSGIDVNINMTTPAMMISSELAKKPKEVQLKFLQKFQEWTRAHPEDAVSLLELCPQLSFVTAELLLTNGICKVDDLIPLASRPQEEASATNNNSVNEVVDPAVLNKQKELLKQVLQLNDSQISILPDDERMAIWDLKQKALRGEFGAF"}, "B3": {"name": "Clp1 (protein, UniProt Q08685 1-445)", "chain": "MASLPGIDEHTTSEELITGDNEWHKLVIPKGSDWQIDLKAEGKLIVKVNSGIVEIFGTELAVDDEYTFQNWKFPIYAVEETELLWKCPDLTTNTITVKPNHTMKYIYNLHFMLEKIRMSNFEGPRVVIVGGSQTGKTSLSRTLCSYALKFNAYQPLYINLDPQQPIFTVPGCISATPISDILDAQLPTWGQSLTSGATLLHNKQPMVKNFGLERINENKDLYLECISQLGQVVGQRLHLDPQVRRSGCIVDTPSISQLDENLAELHHIIEKLNVNIMLVLCSETDPLWEKVKKTFGPELGNNNIFFIPKLDGVSAVDDVYKRSLQRTSIREYFYGSLDTALSPYAIGVDYEDLTIWKPSNVFDNEVGRVELFPVTITPSNLQHAIIAITFAERRADQATVIKSPILGFALITEVNEKRRKLRVLLPVPGRLPSKAMILTSYRYLE"}},
  "note": "No constants are given. Whether binding was seen depends on the method and setting. In cells and extracts the contact can be indirect. Here binding means that the protein was enriched with, or labelled near, the bait; the list need not be complete.",
  "data": [
    {"target": "T1, TFIIB (wild type, TFIIB^WT) (S. cerevisiae) (UniProt P29055)", "T1 sequence": "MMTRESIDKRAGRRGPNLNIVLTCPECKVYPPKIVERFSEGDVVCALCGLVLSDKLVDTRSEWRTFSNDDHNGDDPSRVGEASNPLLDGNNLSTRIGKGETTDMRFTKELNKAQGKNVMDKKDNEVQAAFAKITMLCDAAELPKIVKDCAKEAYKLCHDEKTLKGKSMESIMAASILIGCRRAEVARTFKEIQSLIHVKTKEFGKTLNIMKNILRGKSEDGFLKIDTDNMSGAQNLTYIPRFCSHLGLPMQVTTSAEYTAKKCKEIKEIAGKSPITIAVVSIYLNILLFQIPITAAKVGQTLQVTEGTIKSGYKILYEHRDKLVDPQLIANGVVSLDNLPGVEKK", "assay": "affinity purification with mass spectrometry; TFIIB affinity purified from chromatin (and soluble) fractions of S. cerevisiae cells; purified fractions subjected to mass spectrometry; TFIIB-normalized spectral abundance factor (BNSAF); four replicates", "values": [
      {"molecule": "Pcf11 (from UniProt P39081 1-626)", "binding": "binds"},
      {"molecule": "B1", "binding": "binds"},
      {"molecule": "B2", "binding": "binds"},
      {"molecule": "B3", "binding": "binds"}
    ]}
  ]
}
